Test results from publication PMC4718940, “Preclinical studies of 5-fluoro-2′-deoxycytidine and tetrahydrouridine in pediatric brain tumors” (Journal of Neuro-Oncology, 2015).

What was measured:
[1] = tested on: mouse CPC neurospheres (CPC300); assay: 72 h dose response, CellTiter-Glo, mouse CPC neurospheres; assay type: cell-based; settings: 72 hr treatment, 384-well
Procedure: (§1) In the Discovery Phase, the initial studies included the screen of a library of 9 compounds against epigenetic regulators at a single concentration and a dose-response on G3 MB, EP, and CPC tumor cells, as well as HEPG2 and BJ (Fig. 1). The library and dose response studies are described in the Supplementary Material.
(§2) Briefly, cells (see Supplementary Table S2 for cell identity) were plated in 384-well plates (Corning) in 30 µL of supplemented neurobasal medium by using an automated plate filler (Wellmate, Matrix). After 24 hr, 28 nL of compound was transferred via pin tool, resulting in a final drug concentration of approximately 4 nM to 10 µM. After 72 hr of treatment, CellTiter-Glo reagent (Promega) was added, and the luminescence signal was measured using an automated Envision plate reader (Perkin-Elmer). Luminescence data were normalized by log10-transformation prior to calculating the percentage of inhibition using the following equation: 100 × (negative control mean − compound value)/(negative control mean − positive control mean). Our negative control represents cells treated with 0.1% DMSO with 0% inhibition. […] High through put assay data were analyzed by using our in-house Robust Interpretation of Screening Experiments (RISE) application that was written in Pipeline Pilot (Accelrys, v. 8.5) and R (R Development Core Team).

mouse EP neurospheres = assay: 72 h dose response, CellTiter-Glo, mouse EP neurospheres; assay type: cell-based; settings: 72 hr treatment, 384-well
Procedure: as §1, §2

SMILES: O=C(CCCCCCC(=O)Nc1ccccc1)NO [SAHA (Vorinostat), Vorinostat]
- EC50 [1]: 6.7 µM
- EC50 (mouse EP neurospheres): 6.3 µM
